Experimental data: PubChem BioAssay AID504786 (Drosophila RNAi Screening Center, 2011)

- Aim: 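Fly genes required for HIF-dependent transcription when hypoxia is mimicked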 (primary screen)
- Cell system: Drosophila S2 cells with a stable HIF luciferase reporter
- Knock-down reagent: long dsRNA against Drosophila genes, about 0.2 µg dsRNA per well of a 384-well plate
- Timing: three days of knock-down, then 20 h of DFO before reading
- Treatment: desferrioxamine (DFO) at 100 µM, an iron chelator that mimics hypoxia, for 20 h
- Detection: 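Firefly luciferase driven by the mouse ldh-a hypoxia-response element, measured after 20 h of 100 µM DFO; z-scores per plate, higher means more signal lost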
- Direction: z-score: higher = stronger loss of HIF reporter signal
The screen tested about 21,000 reagents; shown is a random part of those that have a named target and a result. 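Primary screen; positive scores mean lost reporter signal, so the sign may be inverted from the usual convention.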 Names joined by + are all predicted targets of the reagent. Not all columns of the deposit are shown.

z-score, replicate 1, by gene and reagent
CG1418: DRSC06447 -0.2
Sps2: DRSC03441 -0.2
CG11672: DRSC14344 -0.1
dnt: DRSC03522 -0.4
CG13036 (retired record): DRSC09916 -0.2
rau: DRSC03125 -0.2
Drep4: DRSC03408 -0.4
aux: DRSC12161 -0.2
CG7810: DRSC03072 -0.3
Ubqn: DRSC19581 0.8
RpL27: DRSC15638 5.8
Ccp84Af: DRSC12591 -0.1
atl: DRSC16089 -0.3
Gr64b: DRSC08444 -0.2
Acsf3: DRSC18146 0
CG9961: DRSC00738 -0.2
Arl2: DRSC14117 -0.4
dikar: DRSC09699 -0.1
Obp99b: DRSC16264 0.1
CG11839: DRSC14398 -0.1
CG7381: DRSC16238 -0.3
mus304: DRSC11372 -0.3
Amnionless: DRSC00317 -0.3
ca: DRSC15305 -0.4; DRSC15306 -0.3; DRSC16314 -0.1
Rnmt: DRSC03558 -0.4
Gp150: DRSC04618 -0.3
Alp7: DRSC04355 0.5
GatC + PolG2: DRSC03312 -0.2
CG1578: DRSC19729 -0.2
CG13375: DRSC18621 -0.4
CG13473: DRSC10017 -0.3
CG1750: DRSC15240 0.1
wry: DRSC00352 -0.1; DRSC00456 0
CG10834: DRSC03693 -0.1
sif: DRSC08759 -0.3; DRSC11395 -0.2
Septin1: DRSC20573 0.1
CG30458: DRSC06660 -0.4
RIOK1: DRSC09853 -0.1
Cog3: DRSC00585 -0.4
P58IPK: DRSC16404 -0.3
CG31344: DRSC16069 -0.3
salto: DRSC06291 -0.3
CG4646: DRSC06876 -0.2
Msh6: DRSC10759 -0.2
CG1360: DRSC06406 -0.4
CG9399: DRSC16488 -0.4
CG31693: DRSC03674 -0.2
mon2: DRSC03112 -0.5
Rad60: DRSC15580 -0.2
CG10274: DRSC09716 -0.1
CG4766: DRSC17736 -0.3
CG4372: DRSC04466 -0.3
RpL3 + CG6693: DRSC16097 -0.3
CG40378 (retired record): DRSC20958 0.4
LManI: DRSC02838 -0.3
Hpr1: DRSC12296 -0.4
mtt: DRSC05106 0; DRSC05107 1.3; DRSC06753 -0.3; DRSC07235 -0.4
Vha68-2: DRSC02721 -0.4
aay: DRSC11320 -0.3
Tab2: DRSC07481 -0.3
CG17207: DRSC15198 -0.3
fun (retired record): DRSC12300 -0.4
CG2218: DRSC15428 -0.3
Nf-YB: DRSC02057 -0.4
Pxt: DRSC17040 -0.2
Asciz: DRSC08421 -0.1
CG10041: DRSC14179 -0.2
CG12910: DRSC06225 -0.3
Obp18a: DRSC19736 -0.3
Fem-1: DRSC07322 -0.4
CG4271: DRSC00649 -0.2
kek5: DRSC19438 -0.5
CG10910: DRSC06007 -0.2
Clbn: DRSC14404 -0.2
CG12935 + Nop10: DRSC07025 -0.3
CG42402: DRSC21116 0

11 entries from above, ordered by “z-score, replicate 1”, ascending:
gene	amplicon	z-score, replicate 1
mon2	DRSC03112	-0.5
CG1360	DRSC06406	-0.4
CG9399	DRSC16488	-0.4
salto	DRSC06291	-0.3
CG4766	DRSC17736	-0.3
CG4372	DRSC04466	-0.3
CG4646	DRSC06876	-0.2
Msh6	DRSC10759	-0.2
CG31693	DRSC03674	-0.2
Rad60	DRSC15580	-0.2
CG10274	DRSC09716	-0.1
